Chains of the proteins cited; added tags and fusions are not shown. Lines headed by an entry give the natural chain unless they say otherwise; changes in a name come on top.
UniProt P08397: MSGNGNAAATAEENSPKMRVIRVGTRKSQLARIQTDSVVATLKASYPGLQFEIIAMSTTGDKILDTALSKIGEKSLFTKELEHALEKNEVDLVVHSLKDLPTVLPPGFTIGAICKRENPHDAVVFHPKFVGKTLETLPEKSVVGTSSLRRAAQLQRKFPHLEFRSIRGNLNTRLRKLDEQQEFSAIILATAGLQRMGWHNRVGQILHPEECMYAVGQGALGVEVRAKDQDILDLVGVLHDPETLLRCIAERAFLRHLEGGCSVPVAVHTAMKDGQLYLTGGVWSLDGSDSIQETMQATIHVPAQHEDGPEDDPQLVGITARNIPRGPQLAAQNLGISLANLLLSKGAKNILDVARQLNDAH

For at least one compound, name, drawing or mass did not settle the structure. Some entries repeat one wording, which the source may state once for all of them.
These compounds were tested against porphobilinogen deaminase (PBGD) (Homo sapiens (Human), UniProt P08397) (assay: Enzymatic assay of porphobilinogen deaminase catalytic activity (Lineweaver-Burk, inhibition constants)). Settings: increasing amounts of inhibitor; change in slope with same intercept.
Assay type: biochemical
Procedure: Obtaining and purifying the enzyme: The enzyme is obtained and purified by following the method published by Millet O et al. (2009) Biochemistry 48: 454-461.
Enzymatic assay: The assay is based on the method described by Jordan (Shoolingin-Jordan P M et al. (1997). Methods in enzymology 281: 327-336) with some modifications. 10 μL of porphobilinogen deaminase (PBGD) at a concentration of 150 μM in 48 μL of buffer (20 mM Tris-HCl pH 8.0, NaCl 150 mM) is preheated at 37° C. for two minutes. If the assay is performed in the presence of an inhibitor, the latter is added in dissolved form into the buffer. 25 μL of the porphobilinogen (PBG) substrate are then added, diluted to different concentrations (0.15, 0.3, 0.45, 0.6, 0.9, 1.2, 1.5, 1.8, 2.1, 2.4, 2.7, 3, 3.3, 3.9 mM) in the aforementioned buffer and are incubated at 37° C. for five minutes. A control assay containing a buffer without substrate (PBG) in the same proportions is performed at the same time. The enzymatic reaction is stopped by means of freezing the samples in liquid nitrogen. Then the mixture is incubated again with 6 μL of 25 mM uroporphyrinogen 3 synthase (U3S) at 37° C. for 30 minutes to transform the pre-uroporphyrinogen into uroporphyrinogen III. The reaction is again stopped by means of freezing in liquid nitrogen. Then the formed […] uroporphyrinogens are oxidized to uroporphyrins by means of adding 25 μL of I2/KI solution and incubation for 10 minutes in ice and darkness. The iodine excess is then bleached by adding 25 μL of saturated sodium metabisulfite solution. […] Finally, different dilutions of the supernatant in 0.1 M HCl are prepared to measure the change of absorbance at 405 nm with respect to the control sample.
Calculation of inhibition constants: Inhibition constants have been calculated from the global data fitting of all values in presence of inhibitor according to the methodologies disclosed in the prior art (Structure and mechanism in protein Science, Alan Fersht, 1999, Ed. Freeman and Co. (New York), Pag. 105-115).
`N[C@@H](Cc1c[nH]c2c(F)cccc12)C(=O)O` [7F-TRP, 2S-amino-3-(1H-indol-7-fluoro-3-yl) propanoic acid] was tested, and the “type of inhibition of the catalytic activity of PBGD (Lineweaver-Burk plot)” value (“type of inhibition … (Lineweaver-Burk plot)” for short) was “competitive inhibition”.
With `c1ccc2[nH]ccc2c1` [IND, 2,3-benzopyrrole] the “type of inhibition … (Lineweaver-Burk plot)” value was “competitive inhibition”.
For `c1cc[nH]c1` [PYR, pyrrole], the “type of inhibition … (Lineweaver-Burk plot)” value was “competitive inhibition”.

Reference: patent US9138423B2, “Use of inhibitors of porphobilinogen deaminase in the treatment of congenital erythropoietic porphyria” (Asociación Centro de Investigación Cooperativa en …, priority 2010, dated 2015)
